In the experiment the target is T1, Ran GTPase activating protein 1 (human (endogenous in DLD1)) (UniProt P46060).
T1 sequence: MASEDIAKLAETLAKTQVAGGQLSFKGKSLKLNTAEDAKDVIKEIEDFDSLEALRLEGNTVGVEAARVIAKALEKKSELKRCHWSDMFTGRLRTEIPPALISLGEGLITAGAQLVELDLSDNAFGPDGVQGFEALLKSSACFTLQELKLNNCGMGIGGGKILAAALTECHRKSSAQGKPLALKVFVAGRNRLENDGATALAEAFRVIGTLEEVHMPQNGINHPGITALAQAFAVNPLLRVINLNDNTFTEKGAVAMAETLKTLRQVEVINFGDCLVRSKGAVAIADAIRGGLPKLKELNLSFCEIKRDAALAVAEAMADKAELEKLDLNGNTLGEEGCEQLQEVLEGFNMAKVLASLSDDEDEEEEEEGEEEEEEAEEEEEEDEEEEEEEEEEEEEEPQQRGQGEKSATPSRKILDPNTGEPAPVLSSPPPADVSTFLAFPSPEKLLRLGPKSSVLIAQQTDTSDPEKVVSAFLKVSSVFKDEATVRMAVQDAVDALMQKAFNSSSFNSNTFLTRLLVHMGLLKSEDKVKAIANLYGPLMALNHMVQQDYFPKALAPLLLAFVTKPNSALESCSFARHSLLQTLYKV
The experiment in a line: co-IP; total proteins of DLD1 cells immunoprecipitated with an anti-RanGAP1 antibody; blot for CRABP2 (Fig. S5C).

These are yes or no findings as the source states them, for the method shown. Binding seen in cells or lysates may run through a third protein.

B1: cellular retinoic acid-binding protein 2 (protein, UniProt P29373 1-138)
chain: MPNFSGNWKIIRSENFEELLKVLGVNVMLRKIAVAAASKPAVEIKQEGDTFYIKTSTTVRTTEINFKVGEEFEEQTVDGRPCKSLVKWESENKMVCEQKLLKGEGPKTSWTRELTNDGELILTMTADDVVCTRVYVRE
Turning to B1, the binding entry is on record as “no binding”.

The record behind these values is publication PMC11016466.
